For one assay, the target named is T1, Nog1-TAP (S. cerevisiae) (UniProt Q02892).
T1 sequence: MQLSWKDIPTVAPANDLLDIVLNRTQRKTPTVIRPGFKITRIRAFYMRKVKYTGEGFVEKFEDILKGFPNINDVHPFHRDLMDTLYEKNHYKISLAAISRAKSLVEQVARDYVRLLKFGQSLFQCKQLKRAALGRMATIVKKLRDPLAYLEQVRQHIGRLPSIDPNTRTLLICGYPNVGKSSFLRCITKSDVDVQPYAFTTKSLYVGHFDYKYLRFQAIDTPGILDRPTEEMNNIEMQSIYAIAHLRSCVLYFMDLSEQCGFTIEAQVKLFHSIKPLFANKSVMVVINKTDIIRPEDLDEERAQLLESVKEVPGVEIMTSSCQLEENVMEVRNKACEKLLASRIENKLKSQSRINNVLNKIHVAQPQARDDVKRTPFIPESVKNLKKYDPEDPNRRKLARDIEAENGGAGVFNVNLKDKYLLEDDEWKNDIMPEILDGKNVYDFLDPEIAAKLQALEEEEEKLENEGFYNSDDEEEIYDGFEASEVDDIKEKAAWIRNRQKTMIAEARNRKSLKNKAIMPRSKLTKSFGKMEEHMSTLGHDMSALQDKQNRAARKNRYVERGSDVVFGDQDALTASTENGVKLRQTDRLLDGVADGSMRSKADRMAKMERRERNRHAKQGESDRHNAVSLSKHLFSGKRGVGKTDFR
Kind of assay: affinity purification with mass spectrometry; TAP-tagged LSU biogenesis factor and associated pre-ribosomal particles purified in one step from total yeast cellular extract on rabbit IgG coupled magnetic beads, 1 h at 4°C, MB buffer (20 mM Tris HCl pH 8, 200 or 300 mM KCl, 5 mM MgOAc) with 0.5% Triton X-100 and 0.1% Tween 20; eluates compared pair wise by semi-quantitative LC-MS/MS with iTRAQ reagents; for Nog1-, Nog2- and Rsa4-TAP wild type against strains in which RPL25, RPL2, RPL43 or RPL21 was shut down for 4 h in glucose.

Protein sequences, listed by entry. Tags and fused reporters are not part of them. Lines headed by an entry give the natural chain unless they say otherwise; changes in a name come on top.
UniProt P53742: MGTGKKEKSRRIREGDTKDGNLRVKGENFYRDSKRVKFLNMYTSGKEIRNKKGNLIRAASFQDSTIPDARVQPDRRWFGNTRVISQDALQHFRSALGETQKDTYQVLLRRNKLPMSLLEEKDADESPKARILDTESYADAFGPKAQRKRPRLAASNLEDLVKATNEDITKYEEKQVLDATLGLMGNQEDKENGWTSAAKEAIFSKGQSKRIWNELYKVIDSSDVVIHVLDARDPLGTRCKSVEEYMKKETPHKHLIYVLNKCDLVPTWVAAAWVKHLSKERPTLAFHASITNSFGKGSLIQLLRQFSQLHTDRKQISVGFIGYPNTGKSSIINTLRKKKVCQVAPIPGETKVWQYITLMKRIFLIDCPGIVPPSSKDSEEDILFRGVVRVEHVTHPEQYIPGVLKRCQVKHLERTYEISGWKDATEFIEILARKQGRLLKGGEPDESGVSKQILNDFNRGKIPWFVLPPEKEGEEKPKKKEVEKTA
UniProt P39938: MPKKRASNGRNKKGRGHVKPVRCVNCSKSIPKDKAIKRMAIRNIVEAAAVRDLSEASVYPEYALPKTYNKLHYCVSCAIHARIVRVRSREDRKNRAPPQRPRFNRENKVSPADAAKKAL

In the next assay the target is Nog2-TAP (S. cerevisiae) (UniProt P53742). The assay is described as above.
For the next assay, the target named is T2, Rsa4-TAP (S. cerevisiae) (UniProt P25382).
T2 sequence: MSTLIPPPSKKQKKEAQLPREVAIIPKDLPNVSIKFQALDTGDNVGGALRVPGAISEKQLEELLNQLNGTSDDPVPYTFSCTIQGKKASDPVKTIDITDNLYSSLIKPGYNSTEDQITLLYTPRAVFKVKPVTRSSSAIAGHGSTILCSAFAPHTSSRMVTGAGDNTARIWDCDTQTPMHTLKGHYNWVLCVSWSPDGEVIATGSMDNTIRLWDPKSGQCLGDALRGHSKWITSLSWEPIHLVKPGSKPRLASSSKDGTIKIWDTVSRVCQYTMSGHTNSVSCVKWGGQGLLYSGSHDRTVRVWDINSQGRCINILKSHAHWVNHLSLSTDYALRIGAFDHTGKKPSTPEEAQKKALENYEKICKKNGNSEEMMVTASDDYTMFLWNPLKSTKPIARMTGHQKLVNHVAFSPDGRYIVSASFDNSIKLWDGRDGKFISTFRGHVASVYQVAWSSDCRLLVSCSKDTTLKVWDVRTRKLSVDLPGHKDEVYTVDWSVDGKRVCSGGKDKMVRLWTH
Described as above.

The target in assay [1] is rpS26-FLAG (S. cerevisiae) (UniProt P39938). Kind of assay: affinity purification with mass spectrometry; rpS26-FLAG and associated 80S ribosomes purified in one step from total yeast cellular extract on anti-FLAG M2 sepharose beads, 1 h at 4°C, MB buffer with 0.5% Triton X-100 and 0.1% Tween; eluates compared pair wise with LSU precursor particles by semi-quantitative LC-MS/MS with iTRAQ reagents.

The next assay addresses T3, Arx1-TAP (S. cerevisiae) (UniProt Q03862).
T3 sequence: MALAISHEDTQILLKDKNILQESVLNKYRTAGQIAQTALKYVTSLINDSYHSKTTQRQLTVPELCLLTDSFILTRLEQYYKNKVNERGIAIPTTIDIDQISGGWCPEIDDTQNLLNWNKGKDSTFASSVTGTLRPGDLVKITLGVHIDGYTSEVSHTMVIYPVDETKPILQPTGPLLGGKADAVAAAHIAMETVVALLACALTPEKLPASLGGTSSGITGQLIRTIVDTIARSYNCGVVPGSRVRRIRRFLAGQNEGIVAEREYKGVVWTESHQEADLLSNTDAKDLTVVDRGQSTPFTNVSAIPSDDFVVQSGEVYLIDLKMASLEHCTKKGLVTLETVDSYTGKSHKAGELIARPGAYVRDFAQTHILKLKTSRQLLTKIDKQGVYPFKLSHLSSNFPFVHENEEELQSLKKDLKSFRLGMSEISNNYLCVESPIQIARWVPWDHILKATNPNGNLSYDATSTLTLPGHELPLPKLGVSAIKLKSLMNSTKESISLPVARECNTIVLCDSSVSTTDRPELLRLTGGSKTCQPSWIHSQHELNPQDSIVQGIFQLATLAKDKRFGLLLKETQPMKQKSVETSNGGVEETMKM
Kind of assay: affinity purification with mass spectrometry; TAP-tagged LSU biogenesis factor and associated pre-ribosomal particles purified in one step from total yeast cellular extract on rabbit IgG coupled magnetic beads, 1 h at 4°C, MB buffer (20 mM Tris HCl pH 8, 200 or 300 mM KCl, 5 mM MgOAc) with 0.5% Triton X-100 and 0.1% Tween 20; eluates compared pair wise by semi-quantitative LC-MS/MS with iTRAQ reagents; for Nog1-, Nog2- and Rsa4-TAP wild type against strains in which RPL25, RPL2, RPL43 or RPL21 was shut down for 4 h in glucose.

No constants are given. Whether binding was seen depends on the method and setting. Binding seen in cells or lysates may run through a third protein. These calls come from enrichment with a bait or labelling near it, and not all partners need be listed.

B1: Nop53 (protein, UniProt Q12080 1-455)
chain: MAPTNLTKKPSQYKQSSRKGKKAWRKNIDLSDVEQYMEKKIDHEITHGTSDITSLQNDALFHVDVEGDEILKNKLIKRKQIKKVLKSKEILDAVKTNSKIAALNHHKNSSGNPNKIQGVSKHELKKLMALAGRVHGESKIKNRVAKDGLVKTTAGDLWGEESNSKKQKVKLPSGIKLDVEKKDQIPEELLKKSTTSWSTASVRPSTLDIEPIAVKEFTEIPHAGKSYNPNNKAWSELINKEYKEEKAREDERIALEKYKERIRHLMETLDDNEEEESSSNEEEEEEEEENENENESTQCSGSDKEIKLSINKPVKNKKKTKYQRNKAKRHEEKVKLQQELKELRQRVKDLEEVINSEETEILSAIESDSNKVKKSKKNKKHKLGTKYSVIDERLEIKFSDELSDSLRKLKPEGNLLYDTVRKLQSSGKVETRVPVRKGRKYKQKITEKWTHKDFK
As for B1, the binding result with Nog1-TAP (S. cerevisiae), in the assay with Nog2-TAP (S. cerevisiae) and with Rsa4-TAP (S. cerevisiae) was “binds” in each case.

B2: phospho-stalk protein 1A (protein, UniProt P05318 1-106)
chain: MSTESALSYAALILADSEIEISSEKLLTLTNAANVPVENIWADIFAKALDGQNLKDLLVNFSAGAAAPAGVAGGVAGGEAGEAEAEKEEEEAKEESDDDMGFGLFD
In the case of B2, the binding entry (in assay [1]; with Arx1-TAP (S. cerevisiae)) was “binds” throughout.

B3: phospho-stalk protein 2B (protein, UniProt P02400 1-110)
chain: MKYLAAYLLLVQGGNAAPSAADIKAVVESVGAEVDEARINELLSSLEGKGSLEEIIAEGQKKFATVPTGGASSAAAGAAGAAAGGDAAEEEKEEEAKEESDDDMGFGLFD
In the case of B3, the binding result (in assay [1]; in the assay with Arx1-TAP (S. cerevisiae)) was “binds” each time.

B4: phospho-stalk protein 2A (protein, UniProt P05319 1-106)
chain: MKYLAAYLLLNAAGNTPDATKIKAILESVGIEIEDEKVSSVLSALEGKSVDELITEGNEKLAAVPAAGPASAGGAAAASGDAAAEEEKEEEAAEESDDDMGFGLFD
With B4, the binding entry (in assay [1]; in the assay with Arx1-TAP (S. cerevisiae)) was “binds” in each case.

B5: phospho-stalk protein 1B (protein, UniProt P10622 1-106)
chain: MSDSIISFAAFILADAGLEITSDNLLTITKAAGANVDNVWADVYAKALEGKDLKEILSGFHNAGPVAGAGAASGAAAAGGDAAAEEEKEEEAAEESDDDMGFGLFD
Regarding B5, the binding result (in assay [1]; with Arx1-TAP (S. cerevisiae)) was “binds” each time.

B6: Alb1 (protein, UniProt P47019 1-175)
chain: MPSKNSINRPKLTSNLHHKVHSLNKKRAQRERAGLLKPARSSVNSKSGEIKSVALDLYFQNKKNESQNSTAVTLQNASSSPASITTRTLSKKRAKKIERNLKYATQRKLLVDASAKLEDEMDIDLDGGKKVKENEKKSSLTLVKEALWSVIDDTASQGLIIENGQGTTLGGPFFP
Consider B6, for which the binding entry with Arx1-TAP (S. cerevisiae) is recorded as “binds”.

B7: Nmd3 (protein, UniProt P38861 1-518)
chain: MEFTPIDPHQHQNAATLLCCNCGTPIDGSTGLVMCYDCIKLTVDITQGIPREANISFCRNCERFLQPPGQWIRAELESRELLAICLRRLKGLTKVRLVDASFIWTEPHSRRIRIKLTVQGEAMTNTIIQQTFEVEYIVIAMQCPDCARSYTTNTWRATVQIRQKVPHKRTFLFLEQLILKHNAHVDTISISEAKDGLDFFYAQKNHAVKMIDFLNAVVPIKHKKSEELISQDTHTGASTYKFSYSVEIVPICKDDLVVLPKKLAKSMGNISQFVLCSKISNTVQFMDPTTLQTADLSPSVYWRAPFNALADVTQLVEFIVLDVDSTGISRGNRVLADITVARTSDLGVNDQVYYVRSHLGGICHAGDSVMGYFIANSNYNSDLFDGLNIDYVPDVVLVKKLYQRKSKKSRHWKLKRMAKEHKDIDASLDYNSRAQKQEMERAEKDYELFLQELEEDAELRQSVNLYKNREANVPPEEHEMDEDEDEDAPQINIDELLDELDEMTLEDGVENTPVESQQ
Consider B7, for which, in the assay with Arx1-TAP (S. cerevisiae), the binding entry was “binds”.

B8: Nop7 (protein, UniProt P53261 1-605)
chain: MRIKKKNTRGNARNFITRSQAVRKLQVSLADFRRLCIFKGIYPREPRNKKKANKGSTAPTTFYYAKDIQYLMHEPVLAKFREHKTFARKLTRALGRGEVSSAKRLEENRDSYTLDHIIKERYPSFPDAIRDIDDALNMLFLFSNLPSTNQVSSKIINDAQKICNQWLAYVAKERLVRKVFVSIKGVYYQANIKGEEVRWLVPFKFPENIPSDVDFRIMLTFLEFYSTLLHFVLYKLYTDSGLIYPPKLDLKKDKIISGLSSYILESRQEDSLLKLDPTEIEEDVKVESLDASTLKSALNADEANTDETEKEEEQEKKQEKEQEKEQNEETELDTFEDNNKNKGDILIQPSKYDSPVASLFSAFVFYVSREVPIDILEFLILSCGGNVISEAAMDQIENKKDIDMSKVTHQIVDRPVLKNKVAGRTYIQPQWIFDCINKGELVPANKYLPGEALPPHLSPWGDAIGYDPTAPVEEGEEEESESESESEDQVEEEDQEVVAGEEDDDDDEELQAQKELELEAQGIKYSETSEADKDVNKSKNKKRKVDEEEEEKKLKMIMMSNKQKKLYKKMKYSNAKKEEQAENLKKKKKQIAKQKAKLNKLDSKK
In the case of B8, in the assay with Rsa4-TAP (S. cerevisiae), the binding entry is given as “binds”.

(Values after article PMC3707915.)
